# This is one part of the list. These are further read-outs of the screen, such as a control signal, another cell line or another target. No call is given for them. Compounds called inactive in the main read-out are mostly missing here. Words in brackets tell the shape of the fitted curve; partial curves, single points and poor fits give uncertain potencies.
# Test: qHTS Assay for Modulators of Lamin A Splicing
# Conditions: HeLa LMNA splicing GFP/RFP minigene ratio, 48 h
# Procedure, shortened: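 S3 HeLa cells stably expressing lamin A-EGFP splicing minigene plus DsRed2, 600 cells/well, 48 h compound exposure at 37C. Laser-scanning cytometry; analysed as GFP (500-530 nm)/RFP (575-640 nm) total intensity ratio; 0.5% DMSO vehicle.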
# [1] = measured here: GFP splicing reporter channel
# [2] = measured here: RFP viability control channel
Structure (SMILES),AC50 [1],AC50 [2]
CCNc1cc(S(=O)(=O)C(F)(F)F)ccc1N,"11.2 µM [rising, partial curve]","22.4 µM [rising, partial curve]"
COc1ccc(CCNC(=O)c2cc(C(=O)c3cc(C)ccc3O)cn(CCc3ccc(OC)cc3)c2=O)cc1,–,"3.55 µM [rising, full curve, poor fit]"
Cc1cccc(OCC(O)Cn2c(=N)n(CCN3CCCCC3)c3ccccc32)c1 (centres undefined),"25.1 µM [rising, single point]","31.6 µM [rising, single point]"
CCc1ccc(-c2cc(C(=O)NCc3ccccn3)c3ccccc3n2)cc1,–,"20 µM [rising, single point]"
N#Cc1nc(-c2cccs2)oc1N1CCN(c2ccccc2)CC1,–,"10 µM [rising, partial curve, poor fit]"
Cc1c(C(=O)Nc2ccncc2)oc2c1C(=O)CC(C)(C)C2,–,"14.1 µM [rising, single point]"
Cc1oc(-c2cccs2)nc1CS(=O)CC(=O)NC1CCCCCC1 (centres undefined),–,"6.31 µM [rising, partial curve]"
COC(=O)c1cc(NC(=O)CN(c2ccc3c(c2)OCO3)S(C)(=O)=O)ccc1Cl,"14.1 µM [rising, single point]","17.8 µM [rising, single point]"
O=[N+]([O-])c1cccnc1N1CCC(c2cc(-c3cccc(C(F)(F)F)c3)n[nH]2)CC1,–,"25.1 µM [rising, single point]"
COc1ccccc1CNC(=O)C1CCN(S(=O)(=O)c2ccc3c(ccn3C)c2)CC1,"0.126 µM [rising, full curve, poor fit]","7.08 µM [rising, full curve, poor fit]"
CCOc1ccccc1NC(=O)C1CCCCN1S(=O)(=O)c1ccc(F)cc1 (centres undefined),–,"20 µM [rising, single point]"
Cc1ccc(S(=O)(=O)NC(=O)NN2C[C@H]3CCC[C@@H]3C2)cc1,"14.1 µM [falling, single point]","0.141 µM [falling, partial curve, poor fit]"
CC(=O)c1ccc(Cc2ccccc2)cc1,"0.02 µM [rising, full curve, poor fit]","0.02 µM [rising, full curve, poor fit]"
O=S(=O)(NCC1CCCO1)c1ccc2ccccc2c1 (centres undefined),"0.794 µM [rising, full curve]","0.794 µM [rising, full curve]"
Cc1ccc(Nc2nc(CSc3nnc(-c4ccc(F)cc4)n3C)cs2)cc1,"5.62 µM [rising, full curve, poor fit]","14.1 µM [rising, partial curve]"
O=S(=O)(CCSc1ccccn1)c1nc2ccccc2s1,"3.55 µM [falling, single point]","11.2 µM [falling, single point]"
COc1cccc(-c2nn(C)c3sc(C(=O)Nc4ccc5c(c4)OCCO5)cc23)c1,–,"15.8 µM [rising, partial curve, poor fit]"
Cc1cc(Cl)ccc1OCC(=O)n1cc(C(=O)c2cc(Cl)ccc2O)cn1,"0.0158 µM [rising, full curve, poor fit]",–
CCc1ccc2c(COC(=O)c3n[nH]c4ccccc34)cc(=O)oc2c1,–,"35.5 µM [rising, single point]"
CCOc1ccc(/C=N/NC(=O)c2[nH]ncc2Br)c(O)c1,"31.6 µM [falling, single point]","35.5 µM [falling, single point]"
COc1ccccc1/C=N/NC(=O)c1nnn(-c2nonc2N)c1CSC1=NCCS1,–,"11.2 µM [rising, single point]"
O=C(N/N=C/c1sc2ccccc2c1O)c1cccc2ccccc12,"14.1 µM [rising, partial curve]","20 µM [rising, partial curve]"
COc1cc(NC(=O)N2CCC3(CC2)Nc2cc(F)ccc2-n2cccc23)cc(OC)c1OC,"0.708 µM [rising, full curve, poor fit]","5.62 µM [rising, partial curve, poor fit]"
CC(C)(C)c1ccc(CN(Cc2ccco2)c2cnc(S(C)(=O)=O)nc2C(=O)Nc2ccc(F)cc2)cc1,"35.5 µM [falling, single point]","35.5 µM [falling, single point]"
Cc1cc(C)c(NC(=O)Cn2c(=O)nc(-c3ccccc3)c3cc(Cl)ccc32)c(C)c1,"4.47 µM [falling, full curve, poor fit]",–
Cc1cccc2sc(N(CCCN(C)C)C(=O)CN3C(=O)c4ccccc4C3=O)nc12,"0.00891 µM [rising, full curve, poor fit]",–
O=[N+]([O-])c1ccc(COc2ccc(-c3[nH]ncc3-c3ccc(Cl)cc3)c(O)c2)cc1,–,"6.31 µM [rising, single point]"

# Copied from the list:
# Under AC50 [1], Cc1ccc(S(=O)(=O)NC(=O)NN2C[C@H]3CCC[C@@H]3C2)cc1 is listed with 14.1 µM [falling, single point]
# Under AC50 [1], Cc1cccc(OCC(O)Cn2c(=N)n(CCN3CCCCC3)c3ccccc32)c1 (centres undefined) is listed with 25.1 µM [rising, single point]
# Under AC50 [2], N#Cc1nc(-c2cccs2)oc1N1CCN(c2ccccc2)CC1 is listed with 10 µM [rising, partial curve, poor fit]

# More records follow.

Structure (SMILES),AC50 [1],AC50 [2]
CCOC(=O)n1c(=O)n(Cc2ccc(Cl)c(Cl)c2)c2ccccc21,"20 µM [rising, single point]","25.1 µM [rising, single point]"
Cc1nc(NC2=NCN(Cc3ccco3)CN2)nc2ccccc12,–,"11.2 µM [rising, partial curve, poor fit]"
Cc1ccc(C)c(NC(=S)c2ccccn2)c1,"4.47 µM [falling, full curve]","14.1 µM [falling, partial curve]"
COc1ccc(/C=N/NC(=O)c2cccnc2)cc1CSc1nc2ccccc2s1,–,"2.82 µM [rising, single point]"
CC(C)(C)C(=O)Nc1ccc(-c2csnn2)cc1,"15.8 µM [falling, single point]","35.5 µM [falling, single point]"
Cc1c(Cl)cccc1-n1ncc(C(=O)NCc2cccs2)c1C1CCN(C(=O)OC(C)(C)C)CC1,–,"35.5 µM [rising, single point]"
O=C(C[n+]1cn(C(F)F)c2ccccc21)c1ccc(Br)cc1,"3.98 µM [rising, partial curve, poor fit]","35.5 µM [falling, single point]"
COc1ccc(NC(=O)C2CCCN(S(=O)(=O)c3cccnc3)C2)cc1 (centres undefined),"20 µM [rising, single point]","35.5 µM [rising, single point]"
COc1ccc(/C=C/CN2CCN(Cc3cccc(OC)c3)C(CCO)C2)cc1 (centres undefined),"22.4 µM [falling, single point]","14.1 µM [falling, partial curve]"
CNC(=O)Cn1c(=O)c2cccn2c2ccc(F)cc21,"5.62 µM [rising, partial curve, poor fit]","5.62 µM [rising, partial curve, poor fit]"
O=C(Nc1ccc(N2CCOCC2)c(Cl)c1)c1ncn[nH]1,"5.62 µM [falling, full curve]","4.47 µM [falling, full curve, poor fit]"
Cc1cc(C)c[n+](C(C)C(=O)c2ccc(-c3ccccc3)cc2)c1 (centres undefined),–,"5.62 µM [rising, full curve]"
CN(C1CCCCC1)S(=O)(=O)c1ccc(S(=O)(=O)N2CCCC2)cc1,–,"10 µM [rising, single point]"
COc1ccc(C(=O)c2ccc(O)cc2)c(O)c1O,"17.8 µM [rising, single point]","12.6 µM [rising, single point]"
CC(C)[C@H](NC(=O)c1ccco1)C(=O)NC12CC3CC(CC(C3)C1)C2,"35.5 µM [falling, partial curve, poor fit]","35.5 µM [falling, partial curve, poor fit]"
O=C(CSc1c[nH]c2ccccc12)N1CCCc2ccccc21,–,"7.08 µM [rising, partial curve, poor fit]"
COc1ccc(CNc2oc(Cc3cccc4ccccc34)nc2C#N)cc1,–,"35.5 µM [rising, single point]"
O=C(N/N=C/c1ccc[nH]1)c1cc(-c2ccc(Cl)cc2)nc2ccccc12,–,"12.6 µM [rising, partial curve, poor fit]"
CC(C)COC(=O)c1ccc(N)cc1,"10 µM [rising, partial curve, poor fit]",–
Cc1ccc(S(=O)(=O)Nc2ccc(-c3csc(-c4ccccc4)n3)cc2)cc1,–,"14.1 µM [rising, partial curve, poor fit]"
COc1cc(/C=N/Nc2nc(=O)[nH]nc2C)cc(OC)c1O,–,"1.58 µM [rising, single point]"
CC(=O)Nc1ccc(NC(=S)NC(=O)/C=C/c2ccc(Cl)cc2)cc1,"22.4 µM [falling, single point]",–
CCCn1c(N)c(Sc2ccccc2)c(=O)n(CCC)c1=O,–,"12.6 µM [rising, single point]"
C(=C\CSc1nnnn1-c1ccccc1)/CSc1nnnn1-c1ccccc1,"14.1 µM [rising, single point]","12.6 µM [rising, single point]"
CCNc1ccc(Br)cc(C(=O)/C=C/c2ccc3c(c2)OCO3)c1=O,"15.8 µM [falling, single point]","35.5 µM [falling, single point]"
CC(C)Cn1c(N)c(C(=O)COC(=O)c2ccc3ccccc3n2)c(=O)n(C)c1=O,"11.2 µM [rising, single point]","22.4 µM [rising, single point]"

# — PubChem BioAssay AID1487 (National Center for Advancing Translational Sciences (NCATS), 2009)
